Measurements published in the supplement of paper PMC10849652.
This is one part of the list.

Sequences of proteins named here, by UniProt entry; tags and fusion partners are left off. A change or cut given only in a name is not applied to a line headed by its entry.
UniProt Q13428: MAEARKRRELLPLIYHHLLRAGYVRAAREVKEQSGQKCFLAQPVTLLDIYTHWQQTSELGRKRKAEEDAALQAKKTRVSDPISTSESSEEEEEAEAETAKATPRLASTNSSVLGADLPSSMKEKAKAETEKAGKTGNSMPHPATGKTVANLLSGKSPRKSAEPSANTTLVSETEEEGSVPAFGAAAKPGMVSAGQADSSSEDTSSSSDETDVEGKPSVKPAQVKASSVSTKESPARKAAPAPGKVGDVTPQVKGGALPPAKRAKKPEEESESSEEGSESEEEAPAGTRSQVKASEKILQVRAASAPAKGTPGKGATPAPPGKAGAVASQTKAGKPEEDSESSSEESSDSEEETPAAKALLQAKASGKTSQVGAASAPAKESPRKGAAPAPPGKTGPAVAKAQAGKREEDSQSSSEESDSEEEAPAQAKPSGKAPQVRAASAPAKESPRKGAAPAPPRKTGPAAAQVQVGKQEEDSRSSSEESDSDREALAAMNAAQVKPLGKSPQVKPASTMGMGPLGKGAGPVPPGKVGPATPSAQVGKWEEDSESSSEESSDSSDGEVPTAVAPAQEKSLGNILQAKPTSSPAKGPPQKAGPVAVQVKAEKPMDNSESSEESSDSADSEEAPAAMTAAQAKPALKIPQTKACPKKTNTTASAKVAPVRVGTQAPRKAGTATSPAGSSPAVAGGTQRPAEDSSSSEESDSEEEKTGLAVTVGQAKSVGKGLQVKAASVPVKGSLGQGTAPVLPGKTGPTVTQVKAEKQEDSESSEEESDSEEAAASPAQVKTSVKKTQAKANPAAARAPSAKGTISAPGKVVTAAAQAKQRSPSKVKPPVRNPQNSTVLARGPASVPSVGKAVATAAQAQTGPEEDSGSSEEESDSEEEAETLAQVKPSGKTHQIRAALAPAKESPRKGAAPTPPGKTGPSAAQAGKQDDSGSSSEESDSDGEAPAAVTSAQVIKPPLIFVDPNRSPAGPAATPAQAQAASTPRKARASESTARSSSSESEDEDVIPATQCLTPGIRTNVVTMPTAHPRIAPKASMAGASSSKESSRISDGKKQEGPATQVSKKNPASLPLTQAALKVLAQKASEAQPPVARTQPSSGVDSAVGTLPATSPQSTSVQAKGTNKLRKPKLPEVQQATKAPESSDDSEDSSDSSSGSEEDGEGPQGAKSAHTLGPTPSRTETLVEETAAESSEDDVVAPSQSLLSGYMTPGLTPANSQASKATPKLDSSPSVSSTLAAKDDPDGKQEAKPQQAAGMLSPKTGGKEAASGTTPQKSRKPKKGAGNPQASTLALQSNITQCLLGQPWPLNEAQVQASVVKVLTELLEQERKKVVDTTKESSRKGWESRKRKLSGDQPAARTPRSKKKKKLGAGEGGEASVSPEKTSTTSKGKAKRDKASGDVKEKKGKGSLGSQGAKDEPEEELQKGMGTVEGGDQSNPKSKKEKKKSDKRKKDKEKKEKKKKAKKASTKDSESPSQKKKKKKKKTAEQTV
UniProt Q9UI15: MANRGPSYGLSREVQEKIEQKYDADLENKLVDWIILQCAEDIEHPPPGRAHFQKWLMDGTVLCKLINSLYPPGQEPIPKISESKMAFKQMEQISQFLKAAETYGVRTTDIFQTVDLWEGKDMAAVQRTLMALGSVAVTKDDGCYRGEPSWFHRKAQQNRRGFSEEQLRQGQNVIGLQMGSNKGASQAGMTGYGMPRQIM
UniProt Q9NVR7: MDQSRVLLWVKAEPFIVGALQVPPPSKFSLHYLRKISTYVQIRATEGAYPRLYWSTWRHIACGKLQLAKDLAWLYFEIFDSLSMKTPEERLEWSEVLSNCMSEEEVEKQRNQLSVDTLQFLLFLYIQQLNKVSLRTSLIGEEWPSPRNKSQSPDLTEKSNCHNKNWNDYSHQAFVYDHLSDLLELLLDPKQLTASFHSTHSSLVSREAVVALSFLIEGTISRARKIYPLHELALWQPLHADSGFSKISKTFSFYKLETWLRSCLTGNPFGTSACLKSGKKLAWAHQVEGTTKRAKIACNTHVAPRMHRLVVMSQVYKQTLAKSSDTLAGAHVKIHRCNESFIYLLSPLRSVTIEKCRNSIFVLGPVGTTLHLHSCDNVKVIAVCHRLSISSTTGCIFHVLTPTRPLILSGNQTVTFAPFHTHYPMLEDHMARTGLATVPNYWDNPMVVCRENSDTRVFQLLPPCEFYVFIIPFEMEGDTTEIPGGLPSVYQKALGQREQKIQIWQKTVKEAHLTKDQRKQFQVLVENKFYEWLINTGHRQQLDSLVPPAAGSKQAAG
UniProt Q96EI5: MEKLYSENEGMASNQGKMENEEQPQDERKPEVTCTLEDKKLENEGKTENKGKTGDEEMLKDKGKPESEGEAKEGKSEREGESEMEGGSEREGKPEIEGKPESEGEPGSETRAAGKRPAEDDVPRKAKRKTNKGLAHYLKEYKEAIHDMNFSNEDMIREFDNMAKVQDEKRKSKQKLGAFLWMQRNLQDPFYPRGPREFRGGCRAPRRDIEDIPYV
UniProt Q8IYN2: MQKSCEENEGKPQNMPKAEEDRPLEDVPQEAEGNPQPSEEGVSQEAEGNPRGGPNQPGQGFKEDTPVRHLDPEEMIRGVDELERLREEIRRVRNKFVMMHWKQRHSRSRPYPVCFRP
UniProt Q15170: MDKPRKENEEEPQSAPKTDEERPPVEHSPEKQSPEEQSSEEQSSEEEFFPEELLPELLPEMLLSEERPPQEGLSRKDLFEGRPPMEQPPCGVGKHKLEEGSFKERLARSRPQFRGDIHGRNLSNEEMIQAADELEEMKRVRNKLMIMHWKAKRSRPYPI
UniProt O15533, whole entry, looked up: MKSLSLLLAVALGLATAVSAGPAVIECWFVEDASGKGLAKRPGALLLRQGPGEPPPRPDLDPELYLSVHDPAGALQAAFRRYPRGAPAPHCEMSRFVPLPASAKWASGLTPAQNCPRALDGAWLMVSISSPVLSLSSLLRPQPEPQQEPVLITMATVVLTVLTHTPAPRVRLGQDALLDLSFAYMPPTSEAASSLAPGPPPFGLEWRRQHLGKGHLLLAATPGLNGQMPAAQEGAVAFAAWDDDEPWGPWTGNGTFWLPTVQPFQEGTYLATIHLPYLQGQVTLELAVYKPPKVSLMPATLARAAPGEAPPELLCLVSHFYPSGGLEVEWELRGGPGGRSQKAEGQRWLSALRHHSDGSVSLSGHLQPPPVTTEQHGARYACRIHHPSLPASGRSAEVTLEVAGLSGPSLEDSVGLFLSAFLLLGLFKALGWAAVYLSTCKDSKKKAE
UniProt Q9Y4I5: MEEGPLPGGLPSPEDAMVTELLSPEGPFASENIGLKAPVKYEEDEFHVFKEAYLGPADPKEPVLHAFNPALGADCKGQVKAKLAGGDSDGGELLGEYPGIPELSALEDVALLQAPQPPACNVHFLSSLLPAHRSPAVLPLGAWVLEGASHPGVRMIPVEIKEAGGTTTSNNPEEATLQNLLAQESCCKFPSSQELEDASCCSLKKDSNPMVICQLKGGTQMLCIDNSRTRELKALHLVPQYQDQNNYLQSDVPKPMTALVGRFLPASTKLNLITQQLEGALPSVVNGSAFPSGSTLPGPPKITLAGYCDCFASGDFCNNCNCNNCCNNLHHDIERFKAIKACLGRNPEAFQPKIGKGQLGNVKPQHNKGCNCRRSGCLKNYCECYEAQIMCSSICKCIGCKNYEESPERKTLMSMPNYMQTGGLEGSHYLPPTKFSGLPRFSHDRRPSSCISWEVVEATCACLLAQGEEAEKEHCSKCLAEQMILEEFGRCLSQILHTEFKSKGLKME
UniProt Q6P1N9: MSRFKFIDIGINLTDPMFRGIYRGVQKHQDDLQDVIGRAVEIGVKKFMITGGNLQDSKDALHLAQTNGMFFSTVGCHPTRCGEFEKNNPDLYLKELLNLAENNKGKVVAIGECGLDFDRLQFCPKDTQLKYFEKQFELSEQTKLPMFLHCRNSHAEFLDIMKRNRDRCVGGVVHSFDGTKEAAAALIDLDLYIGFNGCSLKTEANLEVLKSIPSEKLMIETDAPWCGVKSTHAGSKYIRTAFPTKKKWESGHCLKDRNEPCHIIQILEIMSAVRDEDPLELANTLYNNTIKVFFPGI
UniProt P21731: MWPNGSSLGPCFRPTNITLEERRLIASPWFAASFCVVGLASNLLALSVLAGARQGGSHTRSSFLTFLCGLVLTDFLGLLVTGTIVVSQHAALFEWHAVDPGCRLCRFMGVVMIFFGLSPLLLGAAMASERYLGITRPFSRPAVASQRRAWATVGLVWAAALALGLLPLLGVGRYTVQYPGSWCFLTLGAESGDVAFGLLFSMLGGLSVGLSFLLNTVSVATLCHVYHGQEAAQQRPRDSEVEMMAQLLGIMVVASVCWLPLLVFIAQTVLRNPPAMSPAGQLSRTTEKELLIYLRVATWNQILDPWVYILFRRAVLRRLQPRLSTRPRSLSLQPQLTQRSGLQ
UniProt P0C1Z6, whole entry, looked up: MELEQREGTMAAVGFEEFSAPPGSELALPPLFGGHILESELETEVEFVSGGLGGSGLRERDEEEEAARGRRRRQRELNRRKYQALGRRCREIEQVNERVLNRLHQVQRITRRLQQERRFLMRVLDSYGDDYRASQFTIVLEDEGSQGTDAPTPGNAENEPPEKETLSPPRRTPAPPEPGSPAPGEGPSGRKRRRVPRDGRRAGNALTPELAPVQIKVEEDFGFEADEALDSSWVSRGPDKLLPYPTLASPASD

Assays:
Test in all cases: log2 fold change, soluble protein after heating vs DMSO (PISA); higher = thermal stabilisation; K562 lysate, 10 uM; active = over 0.2 and 3.5 SD of the protein, either way, in both replicates (recomputed)
dasatinib = compound: Cc1nc(Nc2ncc(C(=O)Nc3c(C)cccc3Cl)s2)cc(N2CCN(CCO)CC2)n1 [dasatinib]
In short: (§1)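 Following dounce homogenisation of K562 pellets in PBS pH 7.4 with 1 mM MgCl2, crude extract at 1 mg/mL protein was incubated for 30 min with 10 μM compound. Aliquots were then heated for 3 min over 48°C-58°C and pooled, NP-40 was added to 0.5% at 4°C, and soluble protein was recovered as the supernatant at 21,000xg for 90 min. Channel-sum-equalised TMTpro 16plex LC-MS/MS quantified this protein. Each value, from duplicates, is a log-two fold change in thermal stability relative to solvent controls.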

[1] = compound: Cn1cc(-c2ccc3c(c2)CCN3C(=O)Cc2cccc(C(F)(F)F)c2)c2c(N)ncnc21
In short: as §1

[2] = compound: NC1(c2ccc(-c3nc4ccn5c(=O)[nH]nc5c4cc3-c3ccccc3)cc2)CCC1
In short: as §1

[3] = compound: NCC(=O)Nc1ccc(-n2nc(C(F)(F)F)cc2-c2ccc3c(ccc4ccccc43)c2)cc1
In short: as §1

vorinostat = compound: O=C(CCCCCCC(=O)Nc1ccccc1)NO [vorinostat]
In short: as §1

silmitasertib = compound: O=C(O)c1ccc2c(c1)nc(Nc1cccc(Cl)c1)c1ccncc12 [silmitasertib]
In short: as §1

quisinostat = compound: Cn1cc(CNCC2CCN(c3ncc(C(=O)NO)cn3)CC2)c2ccccc21 [quisinostat]
In short: as §1

[4] = compound: NC(=O)Nc1cc(-c2cccc(F)c2)sc1C(=O)N[C@H]1CCCNC1
In short: as §1

[5] = compound: O=C1NC(=O)C(c2cnc3ccccn23)=C1c1cn2c3c(cc(F)cc13)CN(C(=O)N1CCCCC1)CC2
In short: as §1

entospletinib = compound: c1cn2cc(-c3ccc4cn[nH]c4c3)nc(Nc3ccc(N4CCOCC4)cc3)c2n1 [entospletinib]
In short: as §1

[6] = compound: NC(=O)c1cnc(N[C@@H]2CCCC[C@@H]2N)nc1Nc1cccc(-n2nccn2)c1
In short: as §1

Measured: log2 fold change

TEAD2 isoform 4 (UniProt Q15562)
inactive: dasatinib 0.038 | [1] -0.196 | [2] -0.087 | [3] 0.092 | vorinostat 0.056 | silmitasertib -0.055

TBCD, A0A0J9YWI5
inactive: quisinostat 0.142 | [4] 0 | [5] -0.042 | entospletinib 0.061

TCOF1 isoform 3 (UniProt Q13428)
inactive: quisinostat 0.116 | [4] 0.094 | [6] -0.121 | [2] -0.068 | vorinostat 0.184 | silmitasertib -0.123 | [5] 0.202

TCEA2 (UniProt Q15560)
inactive: entospletinib -0.069

TET2 (UniProt Q6N021)
inactive: dasatinib -0.037 | [1] -0.041 | quisinostat -0.305 | [4] -0.116 | [2] -0.04 | vorinostat -0.036 | silmitasertib 0.046 | [5] -0.049 | entospletinib -0.15

TCF20 (UniProt Q9UGU0)
inactive: dasatinib 0.001 | [1] -0.057 | quisinostat 0.193 | [4] -0.006 | [6] 0.11 | [2] 0.068 | vorinostat -0.067 | silmitasertib 0.054 | [5] -0.056

TAGLN3 (UniProt Q9UI15)
inactive: [6] 0.117 | [2] 0.124 | [3] 0.015 | vorinostat -0.093 | silmitasertib -0.056 | entospletinib -0.014

TBCCD1 (UniProt Q9NVR7)
inactive: [2] -0.233 | vorinostat -0.201 | silmitasertib 0.095

TENM4 (UniProt Q6N022)
inactive: quisinostat -0.13 | [4] 0.033 | [6] -0.081 | [5] 0.143

Reprinted from above (2 entries):
TBCCD1 (UniProt Q9NVR7)
inactive: [2] -0.233 | vorinostat -0.201 | silmitasertib 0.095

TENM4 (UniProt Q6N022)
inactive: quisinostat -0.13 | [4] 0.033 | [6] -0.081 | [5] 0.143

(list continues)

TBX1 isoform 3 (UniProt O43435)
inactive: [3] 0.219 | entospletinib -0.176

TCEAL4 isoform 2 (UniProt Q96EI5)
inactive: dasatinib 0.029 | [1] -0.012 | quisinostat -0.023 | [4] 0.089 | [6] -0.001 | [3] 0.034 | [5] -0.024 | entospletinib 0.019

TBCA (UniProt E5RHG6)
inactive: quisinostat 0.064 | [4] 0.032 | [2] -0.062 | vorinostat 0.006 | silmitasertib -0.073 | [5] 0.055

TCF3 isoform 2 (UniProt P15923)
inactive: quisinostat -0.05 | [4] -0.005 | [2] -0.068 | vorinostat -0.196 | silmitasertib -0.056 | [5] 0.043

TCEAL8 (UniProt Q8IYN2)
inactive: dasatinib 0.061 | [1] 0.11 | quisinostat -0.106 | [4] 0.046 | [3] -0.163 | [5] 0.024 | entospletinib -0.161

TCF3 (UniProt X6REB3)
inactive: [3] -0.257

TAX1BP3 (UniProt O14907)
inactive: dasatinib 0.066 | [1] 0.108 | [6] 0.151 | [2] 0.039 | [3] -0.09 | vorinostat 0.012 | silmitasertib 0.056 | entospletinib -0.005

TCEAL1 isoform 2 (UniProt Q15170)
inactive: [6] -0.015 | [3] 0.058

TECPR1 isoform 4 (UniProt Q7Z6L1)
inactive: dasatinib -0.145 | [1] 0.045 | [6] 0.174 | [2] -0.048 | vorinostat -0.093 | silmitasertib 0.005

TAPBP isoform 3 (UniProt O15533)
inactive: dasatinib 0.186 | [1] -0.048 | quisinostat 0.045 | [4] 0.042 | [2] -0.132 | [3] -0.015 | vorinostat 0.211 | silmitasertib -0.084 | [5] 0.052 | entospletinib 0.047

TEAD1 (UniProt P28347)
inactive: dasatinib -0.23 | [1] 0.242 | [2] -0.393 | [3] 0.08 | vorinostat -0.077 | silmitasertib -0.099 | entospletinib -0.095

TESMIN (UniProt Q9Y4I5)
inactive: dasatinib -0.269 | [1] 0.121 | quisinostat -0.086 | [4] 0.026 | [2] -0.089 | [3] -0.097 | vorinostat 0.158 | silmitasertib 0.026 | [5] -0.039 | entospletinib 0.01

TATDN1 isoform 2 (UniProt Q6P1N9)
inactive: quisinostat -0.122 | [4] 0.018 | [6] 0.266 | [2] -0.064 | [3] 0.18 | vorinostat -0.037 | silmitasertib -0.115 | [5] 0.096

TARDBP (UniProt K7EN94)
inactive: [3] 0.1 | entospletinib -0.166

TBXA2R (UniProt P21731)
inactive: quisinostat -0.016 | [4] -0.053 | [2] -0.153 | vorinostat 0.388 | silmitasertib -0.049 | [5] 0.056

TBXAS1 isoform 3 (UniProt P24557)
inactive: quisinostat 0.288 | [4] -0.117 | [5] -0.198

TFPT (UniProt P0C1Z6)
inactive: dasatinib 0.009 | [1] 0.006 | [6] 0.023 | [2] -0.002 | vorinostat 0.289 | silmitasertib -0.18
